The full ranking holds about 33,000 sequences; the median of “E-score (-0.5 to 0.5)” is about -0.0059, and the highest 2% start at about 0.26. The list shows a part of the results.
target: T1, Cin5 (UniProt P40917); assay: PBM E-score (8-mer binding enrichment) (E-score (-0.5 to 0.5)); higher = stronger / more preferred TF binding; details: protein concentration: 100 nM; construct: GST-full length
T1 sequence: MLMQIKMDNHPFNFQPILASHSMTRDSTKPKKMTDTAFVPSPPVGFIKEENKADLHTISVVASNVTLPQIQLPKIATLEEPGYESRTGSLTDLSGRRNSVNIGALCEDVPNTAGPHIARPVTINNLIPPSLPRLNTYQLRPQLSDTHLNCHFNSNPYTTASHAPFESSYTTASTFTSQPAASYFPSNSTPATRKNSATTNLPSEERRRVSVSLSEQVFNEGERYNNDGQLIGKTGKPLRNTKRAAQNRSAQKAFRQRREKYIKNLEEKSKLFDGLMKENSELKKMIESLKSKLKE
How it was run: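 Detection of bound protein used fluorescent anti-GST, with scans normalised by masliner. The proteins were GST-tagged yeast transcription factors applied at about 100-200 nM to universal all-10-mer Agilent arrays made double-stranded by primer extension. Each ungapped eight-base word, pooled with its reverse complement, was scored with an E-score from the Universal PBM Analysis Suite.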

Row | Sequence | PBM E-score
1 | GAGACATC | -0.00679
2 | GACTACTA | 0.0658
3 | CAAGCGTC | -0.108
4 | AGGCGGGA | -0.0532
5 | ATGGCTAC | 0.0242
6 | CATGCGGG | -0.124
7 | GGAGAGAC | -0.0957
8 | AGCTTGTA | 0.0486
9 | ACTTAGAC | 0.0559
10 | GCCCTACA | -0.104
11 | ATAAAGAT | 0.122
12 | ACTGTAAG | 0.143
13 | ACTTAAAT | 0.105
14 | TATAGTGA | -0.0129
15 | CGCCCACC | -0.0217
16 | TCGTAGCA | 0.0576
17 | GTGTTAAC | -0.03
18 | ACTTAGTC | -0.0898
19 | GCATCTAA | 0.172
20 | TCTAGCAA | 0.095
21 | CGTCCTTC | 0.0493
22 | AGAAAGGC | -0.114
23 | CGTATAGA | -0.00706
24 | CACGGAAC | 0.183
25 | ATTCCGAA | 0.235

Row | Sequence | PBM E-score
26 | CCCTATCG | -0.123
27 | ATGGGAAC | 0.0289
28 | CATCATAG | 0.144
29 | ATAGCGGG | -0.0689
30 | CCTACCAC | -0.224
31 | GGACACAA | 0.164
32 | CAGTCGCG | -0.0811
33 | ATCACTGG | 0.00769
34 | CACGTTTC | -0.0735
35 | ATGCTCAA | 0.0191
36 | ATCTTGCG | 0.0774
37 | ACGCAGTA | -0.15
38 | CTCTGCTA | -0.18
39 | CCGTGAGA | -0.182
40 | GGATGTCA | 0.198
41 | CTTGTAGC | 0.146
42 | ACGCGGAC | -0.151
43 | GCTGGTAC | -0.17
44 | CCACGCCA | -0.0554
45 | AGCCCCCT | -0.39
46 | GTCGTAGA | 0.0262
47 | CATCCAGA | -0.0862
48 | ACTAGCAA | 0.00926
49 | CCACACAA | 0.0874
50 | CGTGGTGA | -0.163

3 entries from above, field by field:
CATCATAG
  PBM E-score = 0.144
ATAGCGGG
  PBM E-score = -0.0689
CCTACCAC
  PBM E-score = -0.224

(listing goes on)

Row | Sequence | PBM E-score
51 | CGGCGCGA | 0.105
52 | ACCCGATA | -0.0171
53 | AGCCCACT | -0.0711
54 | AGGATGAT | 0.257
55 | ACCGGATG | 0.0218
56 | GGCATCCC | -0.19
57 | GGCTCAGA | -0.0705
58 | CGACGCGA | -0.0541
59 | CCGGGTCG | -0.131
60 | CGGCAAGA | -0.0392
61 | ACGGTGCT | -0.123
62 | GGCACTAA | 0.0186
63 | AGCCGTCC | -0.0189
64 | ACATCCAC | 0.0849
65 | AATGGTAC | 0.012
66 | AAAAATAG | 0.0888
67 | GGTGCTGA | -0.0684
68 | GAGTGTTA | 0.121
69 | ACTTTGAT | 0.126
70 | AAAGTACA | 0.215
71 | GCTTTTCC | -0.183
72 | AGTAAGCA | 0.283
73 | CAACCTTC | 0.0189
74 | GAGCATCA | -0.0649
75 | TCTGATCA | 0.0138

Row | Sequence | PBM E-score
76 | GAGGGCTA | -0.205
77 | TCTCGCAA | -0.0425
78 | AGCTCCTA | -0.248
79 | CTATGCGC | 0.136
80 | GGGAACCA | -0.215
81 | GAAAGGCC | -0.195
82 | CTGGTACA | 0.00678
83 | GGGGACTA | -0.225
84 | CAAAACAG | 0.0697
85 | AAGCCGCA | 0.0428
86 | ATAGCAGA | 0.0551
87 | AGCCAAGC | -0.143
88 | GCTCTCAA | -0.0233
89 | GATTCCCC | -0.127
90 | AACTGTTG | 0.0594
91 | GAAGTCGA | 0.114
92 | ATGGTTTG | -0.00284
93 | GAACACCC | -0.119
94 | GCGACAGA | 0.134
95 | TTGTACAA | 0.0843
96 | AGGTAAAA | 0.126
97 | GCAGCTGA | 0.0415
98 | AATCTTTG | 0.0817
99 | CTACAAAA | 0.111
100 | TGCTCCCA | -0.188

Row | Sequence | PBM E-score
101 | GGGTGCCA | 0.0119
102 | CTAGGTCC | -0.119
103 | AGCCACCG | -0.233
104 | AATCGGAG | 0.123
105 | CTAGATAC | 0.096
106 | CAAGACAA | 0.216
107 | AAAACTAT | 0.2
108 | AATTTATC | 0.27
109 | AGTAAAGA | 0.18
110 | ACCTGGAC | -0.13
111 | CTCAGGTA | 0.0217
112 | ACGGCTCC | -0.0551
113 | ATTAATAC | 0.27
114 | GAGGCCTC | -0.337
115 | ACAACGAC | 0.0696
116 | CCTAGGCA | -0.118
117 | ATGTACTG | 0.0502
118 | ACGTTAGC | 0.243
119 | CAGTAAAC | -0.00063
120 | ACGCAGGC | -0.245
121 | TAAGGTGA | -0.0218
122 | AAGTCCTG | -0.236
123 | CGAAGTAG | 0.00111
124 | ATATTAAA | 0.35
125 | CGGTACCA | -0.182

Row | Sequence | PBM E-score
126 | CTTTACGA | -0.142
127 | AAAAAGGA | -0.0464
128 | CCTGAAGC | -0.264
129 | TGTTAAAA | 0.0391
130 | GGTGAGCA | -0.088
131 | CATAGCAA | 0.111
132 | CTCGTAAG | 0.304
133 | GCATGTAC | 0.00473
134 | CGGCTGAG | -0.0825
135 | CTCCCGAG | -0.282
136 | CGAGTGCA | -0.0259
137 | AGCTTATC | 0.204
138 | AGGCGGAT | -0.0191
139 | GCGGTGGA | 0.0809
140 | CCTTACTC | 0.128
141 | ATTGCGAC | 0.193
142 | CACTTCTC | -0.0955
143 | ATGCTACC | -0.0179
144 | AAAGCGAT | 0.21
145 | CGCTACAG | -0.0762
146 | ATTCGATA | 0.221
147 | GGAAAAAA | 0.0511
148 | CAAGACGC | -0.0331
149 | TCCGGTAA | 0.0576
150 | CACCAAGG | -0.131

Reprinted, entries 137–141
Row | Sequence | PBM E-score
137 | AGCTTATC | 0.204
138 | AGGCGGAT | -0.0191
139 | GCGGTGGA | 0.0809
140 | CCTTACTC | 0.128
141 | ATTGCGAC | 0.193

Reformatted: results already given.
Row,Sequence,PBM E-score
136,CGAGTGCA,-0.0259
137,AGCTTATC,0.204

More records follow:

Row | Sequence | PBM E-score
151 | GAGAAAAA | 0.0775
152 | AATACCTA | 0.216
153 | TCAAGAAA | 0.171
154 | CGTAATGC | 0.158
155 | AGAAGCAT | 0.0569
156 | TATTAGAA | 0.23
157 | ACCCTAAA | 0.0007
158 | GCCGCAAA | 0.0703
159 | AGGAAAAA | 0.0868
160 | CCCATGGG | 0.151
161 | GTATACTA | -0.108
162 | GCAGGTAC | -0.189
163 | ACCATGGG | -0.178
164 | CAGCGGGA | -0.0406
165 | ACGATTTC | 0.142
166 | AGATCGAT | 0.108
167 | AGAAAATC | 0.0524
168 | ACACACCG | -0.137
169 | AGTCTCTG | -0.171
170 | ATCAAGTC | 0.0575
171 | ACCCACAG | -0.083
172 | CAGAAATC | -0.024

Source: the supplement of paper PMC3334620
